Measurements: publication PMC2045677, “Thyroid hormone receptor orthologues from invertebrate species with emphasis on Schistosoma mansoni”

Tests used:
SmTRα + SmRXR1 = experiment: EMSA; details: no heterodimer shift; EMSA on ice 40 min, 15 µl with 3 µl 5x buffer (5x: 20% glycerol, 5 mM MgCl2, 2.5 mM EDTA, 2.5 mM DTT, 250 mM NaCl, 50 mM Tris-HCl pH 7.5, 0.25 mg/ml poly(dI-dC)); protein translated in vitro; label: 32P
SmTRβ + SmRXR1 = experiment: EMSA; details: no heterodimer shift; EMSA on ice 40 min, 15 µl with 3 µl 5x buffer (5x: 20% glycerol, 5 mM MgCl2, 2.5 mM EDTA, 2.5 mM DTT, 250 mM NaCl, 50 mM Tris-HCl pH 7.5, 0.25 mg/ml poly(dI-dC)); protein translated in vitro; label: 32P

Row | Sequence | binding result (SmTRα + SmRXR1) | binding result (SmTRβ + SmRXR1)
1 | CCGTAAGGTCAAGGTCACTCG (double strand) [DR0] | no binding | no binding
2 | CCGTAAGGTCACAAGGTCACTCG (double strand) [DR2] | no binding | no binding
3 | CCGTAAGGTCACAGAGGTCACTCG (double strand) [DR3] | no binding | no binding
4 | CCGTAAGGTCACAGGAGGTCACTCG (double strand) [DR4] | no binding | no binding
5 | CCGTAAGGTCACAGGTCACTCG (double strand) [DR1] | no binding | no binding
6 | CCGTAAGGTCACCAGGAGGTCACTCG (double strand) [DR5] | no binding | no binding
7 | CGCAAGGTCATGACCTCG (double strand) [Pal0] | no binding | no binding
8 | GTACCGTAAGGTCACTCGCGT (double strand) [half-site] | no binding | no binding

Construct, isoform or probe ends are uncertain for at least one entry. Negatives hold for the conditions tested. At least one verdict was read from the data and is not stated in words by the source.
